# Results of single-concentration screens

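Assay of Toxoplasma gondii numbers, read through their beta-galactosidase reporter with a colour substrate. Compounds at 50 µM. The record gives no direction; the compounds picked for IC50 retests had high values, so higher reads as fewer parasites. About 18,000 compounds were tested under these conditions; 0.94% (about 170) showed 50% or more at least once.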

Results are given as percent effect. The controls that fix the scale are not given in the record; negative values are as filed. Compounds were drawn at random from those tested, without regard to their results.

CCOCCC(=O)N1C[C@@H](N)C[C@H]1C(=O)N(CC)CC read 6.43%.
O=C(c1cc(C2CC2)on1)N1CCN2CCC1CC2 read -2.789%.
NCc1cc(Cl)ccc1N1CCOCC1 read -27.62%.
CCn1cnnc1CC1CCNC1 (centres unmarked) read -10.53%.
NCCc1cccc2ncccc12 read 9.426%.
O=C(c1ccncc1F)N1CCC(c2cc[nH]n2)CC1 read 5.395%.
CCn1cncc1C1CCCCN1 (centres unmarked) read 0.9962%.
CCN1CCCC1CNC(=O)C1CCNCC1 (centres unmarked) read 3.15%.
CCC1(C(N)=O)CCCN(C(=O)c2cn[nH]c2)C1 (centres unmarked) read -0.851%.
O=C(Cn1cnc2ccccc21)N1CCCC1 read 0.6468%.
O=C(CNc1cncc(Br)c1)N1CCCCC1 read -16.71%.
CCNC(=O)CN1CCN(c2cc(C)nc(C)n2)CC1 read -9.194%.
CC(=O)c1ccc(C(F)F)nc1 read -0.4673%.
Cn1c(CN)nc2cccc(Cl)c21 read 9.044%.
CC(C)c1noc(CN(C)C(=O)C2=NNC(=O)CC2)n1 read -3.373%.
CCC(CC)N(C)C(=O)CNC(=O)C1CC1 read -5.441%.
COC(=O)C(O)CNc1ccc(C(F)(F)F)cn1 (centres unmarked) read 5.447%.
CCC(CC)C(=O)Nc1ccon1 read -20.28%.
Cc1c(C(=O)NCc2ccc(Cl)s2)cnn1C read -5.921%.
Cc1cc(NC(=O)Cn2cnc(C#N)n2)no1 read -6.225%.
CSCCC(O)C(=O)NCCc1ccnn1C (centres unmarked) read -15.34%.
O=C(c1ccccc1C(F)(F)F)N1CCCNCC1 read -2.71%.
CNC(=O)CN(C)Cc1nnsc1Cl read -12.21%.
Cn1nc(C2CCCNC2)n(Cc2ccccc2)c1=O (centres unmarked) read -7.389%.

Some entries from above, unchanged:

{"compound": "O=C(c1ccncc1F)N1CCC(c2cc[nH]n2)CC1", "percent effect": 5.395}
{"compound": "NCCc1cccc2ncccc12", "percent effect": 9.426}
{"compound": "CC(C)c1noc(CN(C)C(=O)C2=NNC(=O)CC2)n1", "percent effect": -3.373}

Measurements from “University of Dundee, Small-Polar-MMV Screening Library” (2021), ChEMBL document CHEMBL3988442.